Results are given in words; binding and its absence hold for the method and conditions named. Binding seen in cells or lysates may run through a third protein. Binding can be weak; no strength is given.
Biological target: Rad6-FLAG (S. cerevisiae) (UniProt P06104)
Assay: co-IP

Protein sequences, listed by entry. Tags and fused reporters are not part of them. Lines headed by an entry give the natural chain unless they say otherwise; changes in a name come on top.
UniProt P06104: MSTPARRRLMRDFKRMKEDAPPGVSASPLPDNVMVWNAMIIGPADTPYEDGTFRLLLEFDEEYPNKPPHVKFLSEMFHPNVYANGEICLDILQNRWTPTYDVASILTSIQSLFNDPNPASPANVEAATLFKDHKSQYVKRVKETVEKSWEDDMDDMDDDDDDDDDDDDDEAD
UniProt P0C0W9: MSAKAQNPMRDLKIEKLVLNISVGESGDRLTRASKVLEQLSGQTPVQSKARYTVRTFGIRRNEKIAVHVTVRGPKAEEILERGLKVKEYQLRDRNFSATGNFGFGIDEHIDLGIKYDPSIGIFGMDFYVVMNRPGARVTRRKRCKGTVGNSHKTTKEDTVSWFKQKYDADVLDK

ribosomal protein uL5 (from UniProt P0C0W9)
binding: binds
